Results: PMC8547954, “Myopalladin knockout mice develop cardiac dilation and show a maladaptive response to mechanical pressure overload” (eLife, 2021)
Results are given in words; binding and its absence hold for the method and conditions named. Some results given as binding are weak or reduced against the parent protein; the word gives no strength.

Chains of the proteins cited; added tags and fusions are not shown. Residues count along the entry.
UniProt Q8WZ42, residues 942-1173: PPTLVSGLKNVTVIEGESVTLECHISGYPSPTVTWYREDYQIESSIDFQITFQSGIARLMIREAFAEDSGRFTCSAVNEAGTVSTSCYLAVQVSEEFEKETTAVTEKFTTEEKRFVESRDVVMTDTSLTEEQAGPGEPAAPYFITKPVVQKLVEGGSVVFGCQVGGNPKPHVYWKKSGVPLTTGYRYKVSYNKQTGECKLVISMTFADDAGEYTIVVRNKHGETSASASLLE

Target: titin Ig domains Z4-Z5 (Res. 942-1173), bait in a modified pLexA vector (human) (UniProt Q8WZ42)
Assay: two-hybrid; library screen: titin Z4-Z5 bait in modified pLexA in S. cerevisiae L40, human skeletal muscle cDNA library in pGAD10; SD/-His/-Leu/-Trp, 30°C, beta-galactosidase colony lift filter assay

binding: binds
B1: myopalladin (MYPN) library clones, the longest starting at amino acid 814 (domain or fragment, UniProt Q86TC9-1 814-1320)
chain: PIPVSPTSRIQNPVAFLSSVLPSLPAIPPTNAMGLPRSAPSMPSQGLAKKNTKSPQPVNDDNIRETKNAVIRDLGKKITFSDVRPNQQEYKISSFEQRLMNEIEFRLERTPVDESDDEIQHDEIPTGKCIAPIFDKRLKHFRVTEGSPVTFTCKIVGIPVPKVYWFKDGKQISKRNEHCKMRREGDGTCSLHIESTTSDDDGNYTIMAANPQGRISCSGHLMVQSLPIRSRLTSAGQSHRGRSRVQERDKEPLQERFFRPHFLQAPGDMVAHEGRLCRLDCKVSGLPPPELTWLLNGQPVLPDASHKMLVRETGVHSLLIDPLTQRDAGTYKCIATNKTGQNSFSLELSVVAKEVKKAPVILEKLQNCGVPEGHPVRLECRVIGMPPPVFYWKKDNETIPCTRERISMHQDTTGYACLLIQPAKKSDAGWYTLSAKNEAGIVSCTARLDIYAQWHHQIPPPMSVRPSGSRYGSLTSKGLDIFSAFSSMESTMVYSCSSRSVVESDEL
